# In the supplement of paper PMC8728848:
# The list shows a part of the results.
# B1: TAL6-6LysM (Trichoderma atroviride) (protein)
# chain: AASKLGVPQPAQRDQVNCQLYAVQPNDNCIDISSKNNITYAQLLSWNPSLSSTCSNLASLNSSSICVSNPKGTFSISSNTVGATDIATTTAPVPSPTLDQTTSRCAKYYQVSDGDDCSHLTAQFAITLKDFIFLNSEVWQNCTNLELGYYYCVEPVGYISTYPGYLPTATTKPFNQTSATSLPYDGDPWARFSSNSSVIPIANGTRVDCYSYVYVKNLTENLFADCWNMASMYEITREELVLWNPSLGNDGSSGSNLSGAEASQVASSIAIPTTAPSSITTNLYTYPCTVAANISYCVALVSSTGALPTNTAPPGPHASGEISNCTAWFAPEAYDTCKSILDIFEMSFANFYKMNPSVGPDCSGLAVGTNYCVSTYPNGEDPNDDWDGDDSIPSISPTGIITPTPTQSGMVSNCNKFYDVHSNDGCSAIASSQHVDLSSLYKWNPAIKTDCSGLQASVYVCIGILTTSMSTTSKLPTTTSKPSTTSKPPTGITTPTPTQSGMVKNCNKFYDVHSGDGCSAIASSQKVNLSSFYLWNPAVKTDCSGLQASVFVCIGTLTTSMSTTTSKLPTTTSKPSTTSKPPTGIITPTPTQNGMVKNCNKFYDVHSGDGCSAIASSQKVNLSSFYLWNPAVKTDCSGLQASVFVCVGTATTTTAAGITTPTPTQSGMVSGCNKFYDVHAGDGCSAIASSQKIALSSLYKWNPAVKTDCSGLQASVYICIGVGNAAAARVTGAAASFLEQKLISEEDLNSAVDHHHHHH
# How the values were obtained:
# Assay in all cases: glycan array binding signal (z-score within array); higher = stronger binding
# Details in all cases: glycan notation: IUPAC condensed, linker removed
# [1] = target: Neu5Ac(a2-6)Gal(b1-4)GlcNAc(b1-3)Gal(b1-4)GlcNAc(b1-3)GalNAc
# Procedure, shortened: (§1)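 Negative Z-scores can be read as non-binding. The Z-score is calculated within each array and then averaged across arrays of one protein sequence at different concentrations or buffers and across linkers. Arrays, 3228 in all, were curated from the Consortium for Functional Glycomics database and kept only where the protein sequence was available.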
# [2] = target: Neu5Ac(a2-6)Gal(b1-4)GlcNAc(b1-3)Gal(b1-4)GlcNAc(b1-3)[Neu5Ac(a2-6)Gal(b1-4)GlcNAc(b1-3)Gal(b1-4)GlcNAc(b1-6)]GalNAc
# Procedure, shortened: as §1
# [3] = target: Neu5Ac(a2-6)Gal(b1-4)GlcNAc(b1-3)Gal(b1-4)GlcNAc(b1-6)[Gal(b1-3)]GalNAc
# Procedure, shortened: as §1
# [4] = target: Neu5Ac(a2-6)Gal(b1-4)GlcNAc(b1-3)Gal(b1-4)[Fuc(a1-3)]GlcNAc(b1-3)Gal(b1-4)[Fuc(a1-3)]GlcNAc
# Procedure, shortened: as §1
# [5] = target: Neu5Ac(a2-6)Gal(b1-4)GlcNAc(b1-3)GalNAc
# Procedure, shortened: as §1
# [6] = target: Neu5Ac(a2-6)Gal(b1-4)GlcNAc(b1-3)[Neu5Ac(a2-6)Gal(b1-4)GlcNAc(b1-6)]GalNAc
# Procedure, shortened: as §1
# [7] = target: Neu5Ac(a2-6)Gal(b1-4)GlcNAc(b1-6)GalNAc
# Procedure, shortened: as §1
# [8] = target: Neu5Ac(a2-6)Gal(b1-4)GlcNAc(b1-6)[Gal(b1-3)GlcNAc(b1-3)]Gal(b1-4)Glc
# Procedure, shortened: as §1
# [9] = target: Neu5Ac(a2-6)Gal(b1-4)GlcNAc(b1-6)[Gal(b1-3)]GalNAc
# Procedure, shortened: as §1
# [10] = target: Neu5Ac(a2-6)Gal(b1-4)GlcNAc6S
# Procedure, shortened: as §1
# Neu5Ac(a2-6)GalNAc = target: Neu5Ac(a2-6)GalNAc
# Procedure, shortened: as §1
# [11] = target: Neu5Ac(a2-6)GalNAc(b1-4)GlcNAc
# Procedure, shortened: as §1
# [12] = target: Neu5Ac(a2-6)GalNAc(b1-4)GlcNAc6S
# Procedure, shortened: as §1
# [13] = target: Neu5Ac(a2-6)GlcNAc(b1-4)GlcNAc
# Procedure, shortened: as §1
# [14] = target: Neu5Ac(a2-6)GlcNAc(b1-4)GlcNAc(b1-4)GlcNAc
# Procedure, shortened: as §1
# Neu5Ac(a2-8)Neu5Ac = target: Neu5Ac(a2-8)Neu5Ac
# Procedure, shortened: as §1
# [15] = target: Neu5Ac(a2-8)Neu5Ac(a2-3)Gal(b1-3)GalNAc(b1-4)[Neu5Ac(a2-3)]Gal(b1-4)Glc
# Procedure, shortened: as §1
# [16] = target: Neu5Ac(a2-8)Neu5Ac(a2-3)Gal(b1-3)GalNAc(b1-4)[Neu5Ac(a2-8)Neu5Ac(a2-3)]Gal(b1-4)Glc
# Procedure, shortened: as §1
# [17] = target: Neu5Ac(a2-8)Neu5Ac(a2-3)Gal(b1-4)Glc
# Procedure, shortened: as §1
# [18] = target: Neu5Ac(a2-8)Neu5Ac(a2-3)Gal(b1-4)GlcNAc
# Procedure, shortened: as §1
# [19] = target: Neu5Ac(a2-8)Neu5Ac(a2-3)[Gal(b1-3)GalNAc(b1-4)]Gal(b1-4)Glc
# Procedure, shortened: as §1
# [20] = target: Neu5Ac(a2-8)Neu5Ac(a2-3)[GalNAc(b1-4)]Gal(b1-4)Glc
# Procedure, shortened: as §1
# [21] = target: Neu5Ac(a2-8)Neu5Ac(a2-8)Neu5Ac
# Procedure, shortened: as §1
# [22] = target: Neu5Ac(a2-8)Neu5Ac(a2-8)Neu5Ac(a2-3)Gal(b1-4)Glc
# Procedure, shortened: as §1
# [23] = target: Neu5Ac(a2-8)Neu5Ac(a2-8)Neu5Ac(a2-3)[Gal(b1-3)GalNAc(b1-4)]Gal(b1-4)Glc
# Procedure, shortened: as §1
# [24] = target: Neu5Ac(a2-8)Neu5Ac(a2-8)Neu5Ac(a2-3)[GalNAc(b1-4)]Gal(b1-4)Glc
# Procedure, shortened: as §1
# [25] = target: Neu5Ac(a2-8)Neu5Ac(a2-8)Neu5Ac(a2-8)Neu5Ac(a2-3)[GalNAc(b1-4)]Gal(b1-4)Glc
# Procedure, shortened: as §1
# [26] = target: Neu5Ac(a2-8)Neu5Gc(a2-3)Gal(b1-4)GlcNAc
# Procedure, shortened: as §1
# [27] = target: Neu5Ac(b2-6)Gal(b1-4)GlcNAc
# Procedure, shortened: as §1
# Neu5Ac(b2-6)GalNAc = target: Neu5Ac(b2-6)GalNAc
# Procedure, shortened: as §1
# [28] = target: Neu5Ac9Ac(a2-3)Gal(b1-3)GlcNAc
# Procedure, shortened: as §1
# [29] = target: Neu5Ac9Ac(a2-3)Gal(b1-4)GlcNAc
# Procedure, shortened: as §1
# [30] = target: Neu5Ac9Ac(a2-6)Gal(b1-4)GlcNAc
# Procedure, shortened: as §1
# [31] = target: Neu5Gc(a2-3)Gal(b1-3)GlcNAc
# Procedure, shortened: as §1
# [32] = target: Neu5Gc(a2-3)Gal(b1-3)[Fuc(a1-4)]GlcNAc
# Procedure, shortened: as §1
# Neu5Gc(a2-3)Gal(b1-4)Glc = target: Neu5Gc(a2-3)Gal(b1-4)Glc
# Procedure, shortened: as §1
# [33] = target: Neu5Gc(a2-3)Gal(b1-4)GlcNAc
# Procedure, shortened: as §1
# [34] = target: Neu5Gc(a2-3)Gal(b1-4)GlcNAc(b1-3)Gal(b1-4)GlcNAc(b1-2)Man(a1-3)[Neu5Gc(a2-3)Gal(b1-4)GlcNAc(b1-3)Gal(b1-4)GlcNAc(b1-2)Man(a1-6)]Man(b1-4)GlcNAc(b1-4)GlcNAc
# Procedure, shortened: as §1
# [35] = target: Neu5Gc(a2-3)Gal(b1-4)[Fuc(a1-3)]GlcNAc
# Procedure, shortened: as §1
# [36] = target: Neu5Gc(a2-6)Gal(b1-4)GlcNAc
# Procedure, shortened: as §1
# Neu5Gc(a2-6)GalNAc = target: Neu5Gc(a2-6)GalNAc
# Procedure, shortened: as §1
# [37] = target: Neu5Gc(a2-8)Neu5Ac(a2-3)Gal(b1-4)GlcNAc
# Procedure, shortened: as §1
# [38] = target: Neu5Gc(a2-8)Neu5Gc(a2-3)Gal(b1-4)GlcNAc
# Procedure, shortened: as §1
# [39] = target: Neu5Gc(a2-8)Neu5Gc(a2-3)Gal(b1-4)GlcNAc(b1-3)Gal(b1-4)GlcNAc
# Procedure, shortened: as §1
# [40] = target: Neu5Gc(a2-8)Neu5Gc(a2-6)Gal(b1-4)GlcNAc
# Procedure, shortened: as §1
# [41] = target: Neu5Gc(b2-6)Gal(b1-4)GlcNAc
# Procedure, shortened: as §1
binder,measurement,setting,value
B1,glycan array binding signal (z-score),[1],-0.317
same,glycan array binding signal (z-score),[2],0.003
same,glycan array binding signal (z-score),[3],-0.387
same,glycan array binding signal (z-score),[4],2.13
same,glycan array binding signal (z-score),[5],-1.09
same,glycan array binding signal (z-score),[6],-0.108
same,glycan array binding signal (z-score),[7],-0.092
same,glycan array binding signal (z-score),[8],-1.03
same,glycan array binding signal (z-score),[9],-0.008
same,glycan array binding signal (z-score),[10],0.283
same,glycan array binding signal (z-score),Neu5Ac(a2-6)GalNAc,-0.325
same,glycan array binding signal (z-score),[11],-0.721
same,glycan array binding signal (z-score),[12],1.99
same,glycan array binding signal (z-score),[13],-0.9
same,glycan array binding signal (z-score),[14],-1
same,glycan array binding signal (z-score),Neu5Ac(a2-8)Neu5Ac,-0.044
same,glycan array binding signal (z-score),[15],-0.253
same,glycan array binding signal (z-score),[16],0.052
same,glycan array binding signal (z-score),[17],-1.51
same,glycan array binding signal (z-score),[18],-1.09
same,glycan array binding signal (z-score),[19],-0.399
same,glycan array binding signal (z-score),[20],2.17
same,glycan array binding signal (z-score),[21],-0.139
same,glycan array binding signal (z-score),[22],-0.819
same,glycan array binding signal (z-score),[23],-0.053
same,glycan array binding signal (z-score),[24],1.2
same,glycan array binding signal (z-score),[25],0.373
same,glycan array binding signal (z-score),[26],-0.396
same,glycan array binding signal (z-score),[27],0.126
same,glycan array binding signal (z-score),Neu5Ac(b2-6)GalNAc,-0.369
same,glycan array binding signal (z-score),[28],-1.09
same,glycan array binding signal (z-score),[29],-1.11
same,glycan array binding signal (z-score),[30],-0.339
same,glycan array binding signal (z-score),[31],-0.841
same,glycan array binding signal (z-score),[32],-1.24
same,glycan array binding signal (z-score),Neu5Gc(a2-3)Gal(b1-4)Glc,-1.25
same,glycan array binding signal (z-score),[33],-0.605
same,glycan array binding signal (z-score),[34],-1.84
same,glycan array binding signal (z-score),[35],0.247
same,glycan array binding signal (z-score),[36],0.191
same,glycan array binding signal (z-score),Neu5Gc(a2-6)GalNAc,-0.67
same,glycan array binding signal (z-score),[37],-0.626
same,glycan array binding signal (z-score),[38],-1.72
same,glycan array binding signal (z-score),[39],-0.429
same,glycan array binding signal (z-score),[40],-0.455
same,glycan array binding signal (z-score),[41],0.217

# Quoted at random: 3 entries already listed, in no set order.
binder,measurement,setting,value
B1,glycan array binding signal (z-score),[35],0.247
same,glycan array binding signal (z-score),[13],-0.9
same,glycan array binding signal (z-score),Neu5Gc(a2-6)GalNAc,-0.67
